Experimental data published in publication PMC4956120.
Results are given in words; binding and its absence hold for the method and conditions named. In cells and extracts the contact can be indirect. Some binding calls cover weakened binding; strength is not graded here. For some of these results: Sequences can lack the tags named with a protein.

Protein sequences, listed by entry. Tags and fused reporters are not part of them.
UniProt P32114: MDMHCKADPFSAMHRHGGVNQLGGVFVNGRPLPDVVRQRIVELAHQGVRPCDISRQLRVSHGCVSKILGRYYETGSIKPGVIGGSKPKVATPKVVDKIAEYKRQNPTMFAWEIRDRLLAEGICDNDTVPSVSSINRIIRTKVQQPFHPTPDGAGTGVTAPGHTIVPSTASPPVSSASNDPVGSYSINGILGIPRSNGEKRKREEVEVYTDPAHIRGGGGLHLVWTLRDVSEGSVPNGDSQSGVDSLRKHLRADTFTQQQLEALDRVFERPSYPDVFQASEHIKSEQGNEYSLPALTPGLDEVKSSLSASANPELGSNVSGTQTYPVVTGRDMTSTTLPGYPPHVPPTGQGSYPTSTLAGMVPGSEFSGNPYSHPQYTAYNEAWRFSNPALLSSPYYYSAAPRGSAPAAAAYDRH

B1: Flag-tagged Six2 (protein, UniProt Q62232 1-296)
chain: MSMLPTFGFTQEQVACVCEVLQQGGNIERLGRFLWSLPACEHLHKNESVLKAKAVVAFHRGNFRELYKILESHQFSPHNHAKLQQLWLKAHYIEAEKLRGRPLGAVGKYRVRRKFPLPRSIWDGEETSYCFKEKSRSVLREWYAHNPYPSPREKRELAEATGLTTTQVSNWFKNRRQRDRAAEAKERENSENSNSSSHNPLASSLNGSGKSVLGSSEDEKTPSGTPDHSSSSPALLLSPPPPPGLPSLHSLGHPPGPSAVPVPVPGGGGADPLQHHHSLQDSILNPMSANLVDLGS
B2: endogenous Six2 (protein, UniProt Q62232 1-296)
chain: B1 chain
B3: Flag-tagged Lhx1 (protein, UniProt P63006 1-406)
chain: MVHCAGCKRPILDRFLLNVLDRAWHVKCVQCCECKCNLTEKCFSREGKLYCKNDFFRCFGTKCAGCAQGISPSDLVRRARSKVFHLNCFTCMMCNKQLSTGEELYIIDENKFVCKEDYLSNSSVAKENSLHSATTGSDPSLSPDSQDPSQDDAKDSESANVSDKEGGSNENDDQNLGAKRRGPRTTIKAKQLETLKAAFAATPKPTRHIREQLAQETGLNMRVIQVWFQNRRSKERRMKQLSALGARRHAFFRSPRRMRPLVDRLEPGELIPNGPFSFYGDYQSEYYGPGGNYDFFPQGPPSSQAQTPVDLPFVPSSGPSGTPLGGLDHPLPGHHPSSEAQRFTDILAHPPGDSPSPEPSLPGPLHSMSAEVFGPSPPFSSLSVNGGASYGNHLSHPPEMNEAAVW

Legend:
Flag-tagged Osr1 = Flag-tagged Osr1 (UniProt Q9WVG7); experiment: co-IP; HEK293T co-transfected, 48 h; lysed in RIPA buffer; anti-Flag (M2) on protein-G dynabeads, 4°C overnight, five RIPA washes; blot with anti-c-Myc
Myc-tagged Osr1 = Myc-tagged Osr1 (UniProt Q9WVG7); experiment: co-IP; HEK293T co-transfected, 48 h; lysed in RIPA buffer; anti-c-Myc antibody on protein-G agarose beads, 4°C overnight, five RIPA washes; blot with anti-Flag
[1] = biological target: TY1-Osr1 fusion protein (endogenous Osr1 with a 2xTY1 epitope tag at the N-terminus) (mouse (endogenous in E16.5 kidney)) (UniProt Q9WVG7); experiment: co-IP; E16.5 kidneys of Osr1^TY1/TY1 and wildtype embryos; lysis buffer 50 mM HEPES pH 7.5, 140 mM NaCl, 1 mM EDTA, 0.5% NP-40, 0.25% TX-100; anti-TY1 antibody on dynabeads, 4°C overnight; blot with anti-Six2 and anti-Wt1

Molecule | binding (Myc-tagged Osr1) | other results
Myc-tagged Pax2 (from UniProt P32114 1-414) | – | binding (Flag-tagged Osr1): no binding
B1 | binds | –
B2 | – | binding [1]: binds
B3 | no binding | –
